For the experiment, the target named is GST-PAK1-PBD (Pak1-binding domain of Pak1 fused to GST, on beads) (UniProt Q13153). Briefly: pull-down; only the target purified.

Sequences of proteins named here, by UniProt entry; tags and fusion partners are left off. A change or cut given only in a name is not applied to a line headed by its entry.
UniProt Q13153: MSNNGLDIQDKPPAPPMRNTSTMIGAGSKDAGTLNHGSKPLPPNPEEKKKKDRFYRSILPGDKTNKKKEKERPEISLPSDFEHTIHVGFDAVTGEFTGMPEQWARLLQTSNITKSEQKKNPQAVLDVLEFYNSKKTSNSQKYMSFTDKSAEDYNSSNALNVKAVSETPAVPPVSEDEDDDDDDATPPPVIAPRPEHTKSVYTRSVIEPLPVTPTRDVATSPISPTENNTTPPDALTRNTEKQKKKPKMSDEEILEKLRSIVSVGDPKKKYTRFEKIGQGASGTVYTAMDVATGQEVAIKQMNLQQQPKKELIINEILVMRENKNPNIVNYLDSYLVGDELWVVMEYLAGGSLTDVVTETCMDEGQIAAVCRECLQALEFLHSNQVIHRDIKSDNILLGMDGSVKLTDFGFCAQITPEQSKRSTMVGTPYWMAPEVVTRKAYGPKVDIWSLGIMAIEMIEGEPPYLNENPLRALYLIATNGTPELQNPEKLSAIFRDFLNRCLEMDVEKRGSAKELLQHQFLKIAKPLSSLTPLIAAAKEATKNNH
UniProt P60953: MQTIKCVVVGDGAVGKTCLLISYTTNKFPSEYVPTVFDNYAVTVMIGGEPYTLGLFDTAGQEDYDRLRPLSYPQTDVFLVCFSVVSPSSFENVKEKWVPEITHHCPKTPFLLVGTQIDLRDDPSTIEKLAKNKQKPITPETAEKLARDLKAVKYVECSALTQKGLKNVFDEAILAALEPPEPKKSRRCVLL

Data on one substance can be found in article PMC5372602.

No constants are given. Whether binding was seen depends on the method and setting. Binding seen in cells or lysates may run through a third protein. Binding calls can cover weak binding; strength is not graded here.

Consider “Cell division cycle 42 (CDC42), GTP-bound active form (from UniProt P60953 1-191)”, for which the binding result is recorded as “binds”.
